Measurements: paper PMC4788816
These are yes or no findings as the source states them, for the method shown. In cells and extracts the contact can be indirect. Some binding calls cover weakened binding; strength is not graded here. Tags and fused reporters may be left off the sequences shown.

T1: EGFP-tagged Bacurd1/Kctd13 (UniProt Q8BGV7)
T1 sequence: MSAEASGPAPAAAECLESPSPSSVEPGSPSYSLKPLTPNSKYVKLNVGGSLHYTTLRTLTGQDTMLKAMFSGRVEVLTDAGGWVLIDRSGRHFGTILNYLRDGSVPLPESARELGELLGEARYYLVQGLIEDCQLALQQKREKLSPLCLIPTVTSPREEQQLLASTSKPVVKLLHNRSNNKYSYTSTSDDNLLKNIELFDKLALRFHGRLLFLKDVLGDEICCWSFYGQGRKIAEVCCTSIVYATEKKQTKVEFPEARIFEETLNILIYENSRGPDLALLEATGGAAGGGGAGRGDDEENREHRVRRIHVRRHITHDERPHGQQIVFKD

T2: EGFP-tagged Bacurd2/Tnfaip1 (UniProt O70479)
T2 sequence: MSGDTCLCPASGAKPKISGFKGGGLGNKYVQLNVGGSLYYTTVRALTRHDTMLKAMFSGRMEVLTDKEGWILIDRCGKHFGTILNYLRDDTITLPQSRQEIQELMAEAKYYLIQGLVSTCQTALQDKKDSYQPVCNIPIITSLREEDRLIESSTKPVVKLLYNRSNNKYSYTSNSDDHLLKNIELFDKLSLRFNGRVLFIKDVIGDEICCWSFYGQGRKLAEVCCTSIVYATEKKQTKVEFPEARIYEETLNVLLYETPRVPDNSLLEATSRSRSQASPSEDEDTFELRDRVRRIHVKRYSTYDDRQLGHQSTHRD

B1: FLAG-tagged Rnd2 (protein, UniProt Q9QYM5 1-227)
chain: MEGQSGRCKIVVVGDAECGKTALLQVFAKDAYPGSYVPTVFENYTASFEIDKRRIELNMWDTSGSSYYDNVRPLAYPDSDAVLICFDISRPETLDSVLKKWQGETQEFCPNAKVVLVGCKLDMRTDLATLRELSKQRLIPVTHEQGTVLAKQVGAVSYVECSSRSSERSVRDVFHVATVASLGRGHRQLRRTDSRRGLQRSTQLSGRPDRGNEGEMHKDRAKSCNLM
B2: FLAG-tagged Rnd3 (protein, UniProt P61588 1-244)
chain: MKERRASQKLSSKSIMDPNQNVKCKIVVVGDSQCGKTALLHVFAKDCFPENYVPTVFENYTASFEIDTQRIELSLWDTSGSPYYDNVRPLSYPDSDAVLICFDISRPETLDSVLKKWKGEIQEFCPNTKMLLVGCKSDLRTDVSTLVELSNHRQTPVSYDQGANMAKQIGAATYIECSALQSENSVRDIFHVATLACVNKTNKNVKRNKSQRATKRISHMPSRPELSAVATDLRKDKAKSCTVM

Assays:
[1] = molecular target: T1, EGFP-tagged Bacurd1/Kctd13; experiment: co-IP; lysates of HEK293T cells transiently transfected; immunoprecipitation with antibodies against EGFP, immunoblot for FLAG; reciprocal immunoprecipitation with FLAG antibodies, immunoblot for EGFP
[2] = molecular target: T2, EGFP-tagged Bacurd2/Tnfaip1; experiment: as above

Binder | binding [1] | binding [2]
B1 | binds | binds
B2 | binds | binds
